Data taken from patent US20070129288A1 (BAYER HEALTHCARE AG, priority 2002, published 2007).

Assay: general procedure: solution-phase peptide synthesis; HATU / N,N-diisopropylethylamine
Conditions: late stage modification step, dihydrochloride

N-{[(8S,11S,14S)-14-Amino-11-[(2R)-3-amino-2-hydroxypropyl]-5,17-dihydroxy-10,13-dioxo-9,12-diazatricyclo[14.3.1.1^2,6]henicosa-1(20),2(21),3,5,16,18-hexaen-8-yl]carbonyl}-L-phenylalanine dihydrochloride
step yield: 28% of theory
